Here are results for 46 compounds from the supplement of paper PMC4749390.

Counter-ions that a name gives are not always drawn. This is one part of the list. Repeats in this data set agree poorly, so a single value says little.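 Wild-type human LRH-1, a heavily sumoylated nuclear receptor, is tetracycline-inducible in stable JEG3 cells. RT-qPCR measured SUMO-sensitive APOC3 and MUC1 transcripts, which rise with SUMO-less LRH-1 or UBC9 knockdown, versus TBP and DMSO controls. Robust Z-scores beyond ±2 flagged primary hits, followed by toxicity and TBP filtering.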

For this assay, the system named is JEG3 expressing hLRH-1. In words: MUC1 transcript change (ddCt vs TBP and DMSO), Z-score over library; higher = higher MUC1 expression. The settings on record: 10 µM; time (hr): 24.
On to `NC(CO)C(=O)NNCc1ccc(O)c(O)c1O` (stereo unspecified) [Benserazide hydrochloride], for which the “MUC1 transcript change (Z-score)” value stood at 0.523.
With `COc1ccc(CC2c3cc(OC)c(OC)cc3CC[N+]2(C)CCC(=O)OCCCCCOC(=O)CC[N+]2(C)CCc3cc(OC)c(OC)cc3C2Cc2ccc(OC)c(OC)c2)cc1OC` (stereo unspecified) [atracurium besylate] the figure was 0.188.
With `O=C(O)CCC(=O)c1ccc(-c2ccccc2)cc1` [fenbufen] the figure was 0.39.
As to `C#C[C@]1(OC(C)=O)CCC2C3CCC4=C/C(=N/O)CCC4C3CC[C@@]21CC` (stereo partly specified) [norgestimate], the “MUC1 transcript change (Z-score)” value was determined as 0.846.
With `C[C@H]1O[C@H](O[C@H]2[C@H](O)[C@@H](O)[C@@H](O[C@H]3[C@H](O)[C@@H](O)C(O)O[C@@H]3CO)O[C@@H]2CO)[C@H](O)[C@@H](O)[C@@H]1N[C@H]1C=C(CO)[C@@H](O)[C@H](O)[C@H]1O` (stereo partly specified) [acarbose] the figure was -0.616; with `CO/C(O)=C1\C(C)=NC(C)=C(C(=O)OCC(C)C)C1c1ccccc1[N+](=O)[O-]` (stereo unspecified) [nisoldipine], 1.48.
For the compound `CCc1c2c(nc3ccc(OC(=O)N4CCC(N5CCCCC5)CC4)cc13)-c1cc3c(c(=O)n1C2)COC(=O)[C@]3(O)CC` [irinotecan hydrochloride], the “MUC1 transcript change (Z-score)” value was -0.319.
Regarding `CN[C@H]1CC[C@@H](c2ccc(Cl)c(Cl)c2)c2ccccc21` [sertraline hydrochloride], the “MUC1 transcript change (Z-score)” value turned out to be 1.47.
With `Cn1c(=O)c2nc[nH]c2n(C)c1=O` [Aminophylline] the figure was 0.672; with `CCn1cc(C(=O)O)c(=O)c2cc(F)c(N3CCNCC3)nc21` [enoxacin], 1.34; with `Fc1ccc([C@@H]2CCNC[C@H]2COc2ccc3c(c2)OCO3)cc1` [paroxetine hydrochloride], -0.512.
Regarding `NCC[C@H](O)C(=O)N[C@@H]1C[C@H](N)[C@@H](O[C@H]2O[C@H](CN)[C@@H](O)[C@H](O)[C@H]2O)[C@H](O)[C@H]1O[C@H]1O[C@H](CO)[C@@H](O)[C@H](N)[C@H]1O` [amikacin sulfate], the “MUC1 transcript change (Z-score)” value is 0.959.
As to `O[C@H]1[C@H](O)[C@@H](O)[C@H](O)[C@@H](O)[C@H]1O` [inositol], the “MUC1 transcript change (Z-score)” value turned out to be 1.16.
As to `O=C1c2c(O)cccc2Cc2cccc(O)c21` [anthralin], the “MUC1 transcript change (Z-score)” value was found to be 1.3.
With `C[C@]12C=CC(=O)C=C1CCC1C2[C@@H](O)C[C@@]2(C)C1CC[C@]2(O)C(=O)CO` (stereo partly specified) [prednisolone] the figure was -0.551; with `C[C@H](CS)C(=O)N1CCC[C@H]1C(=O)O` [Captopril], -0.338.
With `NCCc1ccc(O)c(O)c1` [Dopamine hydrochloride] the figure was -0.259; with `Cc1ccsc1/C=C/C1=NCCCN1C` [morantel citrate], 0.595.
Consider `CCN1CCN(c2cc3c(cc2F)c(=O)c(C(=O)O)cn3C2CC2)CC1` [enrofloxacin], for which the “MUC1 transcript change (Z-score)” value is 0.39.
With `Cc1c(Nc2ncccc2C(=O)O)cccc1C(F)(F)F` [flunixin meglumine] the figure was -0.628.
As to `Oc1nc2ccccc2n1C1CCN(CCCC(c2ccc(F)cc2)c2ccc(F)cc2)CC1` [Pimozide], the “MUC1 transcript change (Z-score)” value was -0.727.
With `COc1ccc2[nH]c(S(=O)Cc3ncc(C)c(OC)c3C)nc2n1` (stereo unspecified) [tenatoprazole] the figure was -0.173.
With `CCCCC1C(=O)N(c2ccccc2)N(c2ccccc2)C1=O` [Phenylbutazone], the “MUC1 transcript change (Z-score)” value was -0.203.
With `O=C1C(O)=C(O)C(=O)C(O)=C1O` [tetroquinone] the figure was 0.421; with `CC1OC(O[C@H]2/C=C/C=C/C=C/C=C/C=C/C=C/C=C/[C@H](C)[C@@H](O)[C@@H](C)[C@H](C)OC(=O)CC(O)CC(O)CCC(O)C(O)CC(O)C[C@]3(O)C[C@H](O)C(C(=O)O)C(C2)O3)C(O)[C@H](N)C1O` (stereo partly specified) [amphotericin b], 0.808.
With `CCN(CC)CCOCCOC(=O)C1(c2ccccc2)CCCC1` [Carbetapentane citrate] the figure was 0.648.
For the compound `CC(=O)Nc1ccc(C(=O)O)cc1` [acedoben], the “MUC1 transcript change (Z-score)” value amounted to 0.479.
With `CC(C)(C)CC(C)(C)c1ccc(OCCOCC[N+](C)(C)Cc2ccccc2)cc1` [benzethonium chloride] the figure was 1.91.
For `CC(C)(C)NC(=O)[C@H]1CC[C@H]2[C@@H]3CC[C@H]4NC(=O)C=C[C@]4(C)[C@H]3CC[C@]12C` [finasteride], the “MUC1 transcript change (Z-score)” value was -0.486.
As to `CN(CCOc1ccc(CC2SC(=O)NC2=O)cc1)c1ccccn1` (stereo unspecified) [rosiglitazone], the “MUC1 transcript change (Z-score)” value was -0.439.
With `N=C(N)Nc1nc(CSCCC(=N)NS(N)(=O)=O)cs1` [famotidine], the “MUC1 transcript change (Z-score)” value came out at 0.761.
With `C=C1CC[C@H](O)C/C1=C/C=C1\CCC[C@]2(C)[C@@H]([C@H](C)/C=C/[C@H](C)C(C)C)CC[C@@H]12` [ergocalciferol] the figure was 0.916.
Regarding `O=C(COc1ccc(Cl)cc1)N1CCN(Cc2ccc3c(c2)OCO3)CC1` [fipexide hydrochloride], the “MUC1 transcript change (Z-score)” value was determined as 0.604.
Consider `CC(C)[N+](C)(CCOC(=O)C1c2ccccc2Oc2ccccc21)C(C)C` [propantheline bromide], for which the “MUC1 transcript change (Z-score)” value is -0.659.
With `CC(C)NCC(O)COc1cccc2[nH]ccc12` (stereo unspecified) [Pindolol] the figure was 0.381.
With `O=c1oc2cc(O)ccc2s1` [thioxolone] the figure was -0.346; with `CC/C=C\C/C=C\C/C=C\C/C=C\C/C=C\C/C=C\CCC(=O)O` [doconexent], -0.685.
On to `C#C[C@]1(O)CC[C@H]2[C@@H]3CCC4=Cc5oncc5C[C@]4(C)[C@H]3CC[C@@]21C` [danazol], for which the “MUC1 transcript change (Z-score)” value was -0.14.
`CC1(C)OC(=O)C(OCC2CC2)=C1c1ccc(S(C)(=O)=O)cc1` [firocoxib]: the “MUC1 transcript change (Z-score)” value was determined as 0.693.
With `CCOc1ccc(Cc2nccc3cc(OCC)c(OCC)cc23)cc1OCC` [ethaverine hydrochloride] the figure was -0.88.
`CC12CC3CC(C)(C1)CC(N)(C3)C2` [Memantine hydrochloride]: the “MUC1 transcript change (Z-score)” value came out at 0.593.
With `C=C(CC)C(=O)c1ccc(OCC(=O)O)c(Cl)c1Cl` [ethacrynic acid] the figure was -0.501; with `NC[C@H]1O[C@H](OC2[C@@H](N)C[C@@H](N)[C@H](O[C@H]3O[C@H](CO)[C@@H](O)[C@H](N)[C@H]3O)[C@H]2O)[C@H](O)[C@@H](O)[C@@H]1O` (stereo partly specified) [kanamycin sulfate], 0.374; with `CCN(CC)CCNc1ccc(CO)c2sc3ccccc3c(=O)c12` [hycanthone], -0.871.
Consider `Cn1c(=O)c2c(ncn2CC2OCCO2)n(C)c1=O` [doxofylline], for which the “MUC1 transcript change (Z-score)” value came to 1.17.
With `CCC[C@@H]1C[C@@H](C(=O)N[C@@H]([C@H]2O[C@H](SC)[C@H](O)[C@@H](O)[C@H]2O)[C@@H](C)O)N(C)C1` [lincomycin hydrochloride] the figure was 0.654.
